Measurements taken from publication PMC3709733, “A High Molecular-Mass Anoxybacillus sp. SK3-4 Amylopullulanase: Characterization and Its Relationship in Carbohydrate Utilization” (International Journal of Molecular Sciences, 2013).

The molecules below were run on T1, ApuASK (amylopullulanase) (assay: DNS reducing-sugar assay, pullulan substrate). Details: 0.1% (w/v) inhibitor; value is remaining activity, no additive = 100%; 1% pullulan; 100 mM potassium phosphate pH 7.5; 60 °C.
T1 construct: precursor 2033 residues incl; 30-residue signal peptide; monomer; no tag
Type: biochemical, Anoxybacillus sp. SK3-4
Excerpt: DNS reducing-sugar assay, pullulan substrate on ApuASK (amylopullulanase)
In the case of `OC[C@H]1O[C@@H]2O[C@H]3[C@H](O)[C@@H](O)[C@@H](O[C@H]4[C@H](O)[C@@H](O)[C@@H](O[C@H]5[C@H](O)[C@@H](O)[C@@H](O[C@H]6[C@H](O)[C@@H](O)[C@@H](O[C@H]7[C@H](O)[C@@H](O)[C@@H](O[C@H]1[C@H](O)[C@H]2O)O[C@@H]7CO)O[C@@H]6CO)O[C@@H]5CO)O[C@@H]4CO)O[C@@H]3CO` [α-CD], the “Relative activity (%)” value is reported as 19 ± 0.02%.
For `OC[C@H]1O[C@@H]2O[C@H]3[C@H](O)[C@@H](O)[C@@H](O[C@H]4[C@H](O)[C@@H](O)[C@@H](O[C@H]5[C@H](O)[C@@H](O)[C@@H](O[C@H]6[C@H](O)[C@@H](O)[C@@H](O[C@H]7[C@H](O)[C@@H](O)[C@@H](O[C@H]8[C@H](O)[C@@H](O)[C@@H](O[C@H]1[C@H](O)[C@H]2O)O[C@@H]8CO)O[C@@H]7CO)O[C@@H]6CO)O[C@@H]5CO)O[C@@H]4CO)O[C@@H]3CO` [β-CD], the “Relative activity (%)” value was 6 ± 0.01%.
With `OC[C@H]1O[C@@H]2O[C@H]3[C@H](O)[C@@H](O)[C@@H](O[C@H]4[C@H](O)[C@@H](O)[C@@H](O[C@H]5[C@H](O)[C@@H](O)[C@@H](O[C@H]6[C@H](O)[C@@H](O)[C@@H](O[C@H]7[C@H](O)[C@@H](O)[C@@H](O[C@H]8[C@H](O)[C@@H](O)[C@@H](O[C@H]9[C@H](O)[C@@H](O)[C@@H](O[C@H]1[C@H](O)[C@H]2O)O[C@@H]9CO)O[C@@H]8CO)O[C@@H]7CO)O[C@@H]6CO)O[C@@H]5CO)O[C@@H]4CO)O[C@@H]3CO` [γ-CD] the “Relative activity (%)” value was 2 ± 0.01%.
